Among the data in publication doi:10.1101/2023.05.30.542845 are binding values, retold here.

These are yes or no findings as the source states them, for the method shown. In cells and extracts the contact can be indirect. Binding can be weak; no strength is given.

This test addresses Myeloperoxidase (human). The experiment in a line: co-IP.

B1: ILF3 (protein, UniProt Q12906 1-894)
chain: MRPMRIFVNDDRHVMAKHSSVYPTQEELEAVQNMVSHTERALKAVSDWIDEQEKGSSEQAESDNMDVPPEDDSKEGAGEQKTEHMTRTLRGVMRVGLVAKGLLLKGDLDLELVLLCKEKPTTALLDKVADNLAIQLAAVTEDKYEILQSVDDAAIVIKNTKEPPLSLTIHLTSPVVREEMEKVLAGETLSVNDPPDVLDRQKCLAALASLRHAKWFQARANGLKSCVIVIRVLRDLCTRVPTWGPLRGWPLELLCEKSIGTANRPMGAGEALRRVLECLASGIVMPDGSGIYDPCEKEATDAIGHLDRQQREDITQSAQHALRLAAFGQLHKVLGMDPLPSKMPKKPKNENPVDYTVQIPPSTTYAITPMKRPMEEDGEEKSPSKKKKKIQKKEEKAEPPQAMNALMRLNQLKPGLQYKLVSQTGPVHAPIFTMSVEVDGNSFEASGPSKKTAKLHVAVKVLQDMGLPTGAEGRDSSKGEDSAEETEAKPAVVAPAPVVEAVSTPSAAFPSDATAEQGPILTKHGKNPVMELNEKRRGLKYELISETGGSHDKRFVMEVEVDGQKFQGAGSNKKVAKAYAALAALEKLFPDTPLALDANKKKRAPVPVRGGPKFAAKPHNPGFGMGGPMHNEVPPPPNLRGRGRGGSIRGRGRGRGFGGANHGGYMNAGAGYGSYGYGGNSATAGYSQFYSNGGHSGNASGGGGGGGGGSSGYGSYYQGDNYNSPVPPKHAGKKQPHGGQQKPSYGSGYQSHQGQQQSYNQSPYSNYGPPQGKQKGYNHGQGSYSYSNSYNSPGGGGGSDYNYESKFNYSGSGGRSGGNSYGSGGASYNPGSHGGYGGGSGGGSSYQGKQGGYSQSNYNSPGSGQNYSGPPSSYQSSQGGYGRNADHSMNYQYR
On to B1, for which the binding entry is on record as “binds”.
